Experimental data as given in PubChem BioAssay AID1347426 (Functional Genomics Laboratory (NCATS/FGL), 2020).
Hit rate of the full screen: of about 31,000 sequences, about 1,400 (4.5%) were called active.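 Rule for the calls: active = median seed-adjusted z-score above 1 or below -1; inactive = the rest.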 The list shows a part of the results.

Assay: Novel Modifiers of Survival Motor Neuron (SMN) Protein: Gene Identification via Genome-wide siRNA Screen;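 note: luminescence tracks full-length SMN protein made from the SMN2 reporter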
Conditions: HEK293T SMN2-luciferase reporter, siRNA knockdown, 72 h; actives lie on both sides
Method in brief: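 Each of three siRNAs per gene is reverse-transfected (1 pmol) into reporter HEK293T cells whose luciferase output tracks SMN protein level. After 72 h culture, ONE-Glo luminescence is control-normalized, log10-transformed and MAD-standardized; Common Seed Analysis deprioritizes seed-driven hits.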

| Sequence | median seed-adjusted z-score |
| --- | --- |
| GAUAAACGCAGGGCACAAATT against KCND3 | inactive: 0.282 |
| GCACAGAUGAAGCCCGCUUTT against ARL11 | active: 1 |
| GGAUCGAUUUUUACAGGUUTT against CCNB2 | inactive: 0.0328 |
| GUAUAUGACUGUACACUCATT against AGPAT4 | inactive: 0.149 |
| AGACUAUGCUCAUCACCGATT against HNF1A | inactive: -0.436 |
| CAACCGGACAAGUUCCAAATT against PHF21A | inactive: 0.179 |
| GUGUGAUGAUAUUCGAAAATT against SGPP1 | inactive: 0.0859 |
| CUGCGGUUACUUAAACAUATT against MAPK14 | inactive: 0.142 |
| GGACCGGAUGUUAACCUUUTT against MAPK3 | inactive: -0.573 |
| UCCUGACCGUGACCUUUGATT against PRDM15 | inactive: 0.258 |
| GCAGUGUUCUCCAUACUAUTT against SLC39A2 | inactive: 0.0602 |
| CCGUAUCCCUUGAUACUGATT against PLA2G4A | inactive: 0.608 |
| CCAACUGCAUGAAGUAUAATT against BRPF3 | inactive: -0.615 |
| GGCCUAUAAUGAAUACCCUTT against GLRA1 | inactive: 0 |
| CAUUUAAGCCUUUAGUGAATT against PRKAG2 | inactive: -0.367 |
| GCAGAGGAGUUUACCUACATT against HAGH | inactive: 0.647 |
| CAUUGAGACCUAUCUGCUATT against MYH11 | inactive: 0 |
| CGUCUAUGCAUAUCCUAGATT against RBM15B | inactive: -0.183 |
| CACGUACUCUGGAUGCACATT against MED25 | inactive: -0.589 |
| AGUGCACAAAUGAUAACAATT against MGAT1 | inactive: 0.138 |
| GCUGAUGCAUUGCUCAUUATT against CCT6A | inactive: -0.286 |
| GCUAGAGAUUGACCAGAAATT against NUDC | inactive: -0.227 |
| GCAGGAACAAGCUCGUAAATT against FSD1L | inactive: 0.166 |
| GGCUUUAUCUUGACCAUAATT against LRRTM4 | inactive: 0 |
| CCUUUGCCCUGUUCAAGGATT against CYP17A1 | active: -1.39 |
| GGAAAGGCUUUACCCGUAATT against ZNF227 | inactive: 0.0194 |
| CAGCACCACCAAUAUCCAATT against RNASE4 | inactive: -0.0112 |

| Sequence | median seed-adjusted z-score |
| --- | --- |
| ACAACAUCGUCUUCCCAGATT against LCN12 | inactive: 0.124 |
| CAAACUUCCUGAAUCUGAUTT against POLD3 | inactive: -0.161 |
| CCAGCUAUCUAUAACCUUATT against ATP6V0C | inactive: -0.389 |
| CGCUGAUCAUGCUACAAGATT against MAML3 | inactive: -0.412 |
| GAAUCAGUAUAGAACAAGATT against RIOK2 | inactive: -0.16 |
| CGACAUCCGCAUCCAGAAATT against SYN3 | inactive: -0.729 |
| CCACGAGAUUGAUAGUAUUTT against KCNAB2 | inactive: 0 |
| GGAUGAUCGUGACAAGUUUTT against ATP1B3 | inactive: -0.225 |
| ACCGGAGAAUGAAAAAGAATT against HOXC12 | inactive: 0.788 |
| GCACUUGUAAGAACUGGUATT against POSTN | inactive: -0.45 |
| GCUAAGGACUAUUUAAAUUTT against NME5 | inactive: 0.393 |
| GCAUUAAGCGAGUCAAGGATT against TAF5L | inactive: 0.409 |
| GCACUUGUAUGAUGAGGUATT against NPHS1 | inactive: -0.0505 |
| GGAGUAUGCUAGGCUAUGATT against WNK2 | inactive: 0.212 |
| GCAGCACGCUCUUCACCAUTT against SLC5A2 | inactive: -0.0782 |
| GAGCUAUAAAUAAACUGAUTT against PET112L | inactive: 0.235 |
| CACCCAGUCUGUCACCAAATT against ARHGAP17 | inactive: -0.336 |
| GGCUACUGCUCAGUUCUUATT against ZBTB24 | inactive: -0.156 |
| ACAUGGAAGAAGAUAAUAATT against ASCC3 | inactive: -0.192 |
| CAGUCAGGUUCAUAAGUAATT against IYD | inactive: -0.572 |
| GAACUAAACUUGUUAAUGATT against TRIM36 | inactive: -0.262 |
| UGACCAUAAGGAAACGAUATT against ANXA10 | inactive: 0.0445 |
| CAUUCUAUGUUGGAUAUUATT against PLDN | inactive: -0.164 |
| UCAUCAACUGCUUCACUUUTT against ADORA2A | inactive: 0 |
| GCCUCACCGUCUAUGUACATT against CD200 | inactive: -0.0135 |
| GACUGGAGAUAUCAAGGAATT against SQLE | active: -1.14 |
| GCCGUUUGACCAUACAUUATT against SNTB1 | inactive: 0.488 |

Looked up above:
In median seed-adjusted z-score, GCAGCACGCUCUUCACCAUTT against SLC5A2 shows inactive: -0.0782
In median seed-adjusted z-score, UGACCAUAAGGAAACGAUATT against ANXA10 shows inactive: 0.0445
In median seed-adjusted z-score, CAGUCAGGUUCAUAAGUAATT against IYD shows inactive: -0.572
